{"sequences": {"note": "By UniProt entry, the sequences of proteins in these tests, tags left out. Residues count along the entry.", "UniProt Q32ZE1, residues 1-104": "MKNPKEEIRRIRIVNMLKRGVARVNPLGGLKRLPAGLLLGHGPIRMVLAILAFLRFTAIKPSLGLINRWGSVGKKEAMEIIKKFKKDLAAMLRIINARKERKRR"}, "source": "paper PMC11377701", "target": "T1, FLAG-tagged murine DGAT1 (mouse) (UniProt Q9Z2A7)", "T1 sequence": "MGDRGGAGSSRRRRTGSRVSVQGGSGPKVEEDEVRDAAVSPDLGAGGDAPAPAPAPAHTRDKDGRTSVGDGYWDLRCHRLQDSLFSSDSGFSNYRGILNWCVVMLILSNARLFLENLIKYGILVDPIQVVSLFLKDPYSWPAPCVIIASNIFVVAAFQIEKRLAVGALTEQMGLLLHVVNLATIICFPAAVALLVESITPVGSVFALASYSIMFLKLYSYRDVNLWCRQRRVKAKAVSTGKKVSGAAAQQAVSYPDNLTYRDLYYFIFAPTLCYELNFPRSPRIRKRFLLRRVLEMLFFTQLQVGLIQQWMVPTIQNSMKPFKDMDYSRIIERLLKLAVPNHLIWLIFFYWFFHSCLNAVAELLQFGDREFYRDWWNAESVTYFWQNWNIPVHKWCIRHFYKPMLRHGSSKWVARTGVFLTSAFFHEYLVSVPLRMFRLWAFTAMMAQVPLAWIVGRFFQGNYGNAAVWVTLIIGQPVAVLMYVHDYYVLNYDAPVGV", "assay": "co-IP; HEK293T co-transfected with both plasmids, lysed 2 days after transfection in 1% NP-40 lysis buffer (50 mM Tris pH 7.4, 150 mM NaCl); pre-cleared with rProtein G agarose; FLAG-specific immunoprecipitation with anti-FLAG M2 affinity gel, 2.5 h at 4 °C; 4 washes; immunoblot", "note": "These are yes or no findings as the source states them, for the method shown. Binding seen in cells or lysates may run through a third protein. Some entries that bind do so weakly or less than the wild type. Where a sequence is shown, tags or fusion partners need not be part of it."}
{"substance": "ZIKV Uganda 1947 MR766 C (-anchor)-2x Strep II (from UniProt Q32ZE1 1-104)", "values": [{"measurement": "binding", "value": "binds"}]}
